Source: PubChem BioAssay AID248 (DTP/NCI, 2004)
The list does not hold the whole screen: it gathers tests that were run many times, whatever their T/C, doses with no T/C, and many T/C values between a quarter and a half above the control. Further doses and runs are listed elsewhere. T/C: endpoint of the treated group in % of that of the vehicle group. Some entries give survivors of the animals treated and no T/C: the source files T/C as zero there, which appears to mark a toxic dose or a test without result, not a measured value. Some doses without a T/C left all or most animals alive at the check, yet need not have been tolerated: survival well below the control is almost never listed, so the zero probably covers shortened survival too. Counts of survivors are from the toxicity check (mostly the fifth day) where no day follows; animals may have died later. Schedule codes are those of the source, read here as Q, the interval in days (D) or hours (H), X, the number of doses. Some schedule codes hold Z or #, which are not explained here. For survival time, the PubChem record calls one and a half times the control and up active, and a quarter to a half above the control has no call in these data; cut-offs in other NCI protocols can differ. Some entries were tested several times; the values are given in rising order. Brackets with × stand for listed records that agree.

Test system: L1210 leukemia ip in BDF1 mice, survival T/C
Experiment: NCI In Vivo Anticancer Drug Screen. Data for tumor model L1210 Leukemia (intraperitoneal) in B6D2F1 (BDF1) mice
Conditions: T/C endpoint: mean survival time, higher T/C = longer survival
[1] = dose: 400.0 mg/kg/injection, schedule: Q01DX001 (ip), vehicle: carboxymethylcellulose (CMC)
[2] = dose: 400.0 mg/kg/injection, schedule: Q01DX009 (ip), vehicle: carboxymethylcellulose (CMC)
[3] = dose: 400.0 mg/kg/injection, schedule: Q04DX002 (ip), vehicle: saline with Tween-80
[4] = dose: 300.0 mg/kg/injection, schedule: Q01DX001 (ip), vehicle: other
[5] = dose: 50.0 mg/kg/injection, schedule: Q01DX009 (ip), vehicle: saline with Tween-80
[6] = dose: 400.0 mg/kg/injection, schedule: Q01DX001 (ip), vehicle: saline
[7] = dose: 200.0 mg/kg/injection, schedule: Q01DX001 (ip), vehicle: saline
[8] = dose: 200.0 mg/kg/injection, schedule: Q01DX009 (ip), vehicle: saline with Tween-80
[9] = dose: 200.0 mg/kg/injection, schedule: Q01DX009 (ip), vehicle: Klucel (hydroxypropylcellulose) (HPC)
[10] = dose: 400.0 mg/kg/injection, schedule: Q01DX009 (ip), vehicle: saline
[11] = dose: 200.0 mg/kg/injection, schedule: Q01DX009 (ip), vehicle: carboxymethylcellulose (CMC)
[12] = dose: 200.0 mg/kg/injection, schedule: Q01DX009 (ip), vehicle: saline

Nc1nc(Cl)nc2c1ncn2C1CC(O)C(CO)O1 (stereo not given)
T/C (dose: 100.0 mg/kg/injection, schedule: Q01DX001 (ip), vehicle: carboxymethylcellulose (CMC)): 129 % of control | T/C (dose: 150.0 mg/kg/injection, schedule: Q01DX001 (ip), vehicle: carboxymethylcellulose (CMC)): 126 % of control | survivor count [1]: 0 of 4

Oc1ccc2ccccc2c1N=Nc1ccc(F)cc1
survivor count [2]: 6 of 6

CCN(CC)CCNc1ccc([N+](=O)[O-])c2sc3ccccc3c(=O)c12
T/C (dose: 17.0 mg/kg/injection, schedule: Q01DX Z (ip), vehicle: methylcellulose (MC)): 130 % of control | T/C (dose: 25.0 mg/kg/injection, schedule: Q01DX Z (ip), vehicle: methylcellulose (MC)): 147 % of control | T/C (dose: 26.0 mg/kg/injection, schedule: Q01DX Z (ip), vehicle: carboxymethylcellulose (CMC)): 143 % of control | T/C (dose: 84.0 mg/kg/injection, schedule: Q01DX Z (ip), vehicle: methylcellulose (MC)): 144 % of control

[I][Bi]([I])[I]
T/C (dose: 100.0 mg/kg/injection, schedule: Q01DX001 (ip), vehicle: water): 95, 101 (2×), 103 % of control | T/C (dose: 200.0 mg/kg/injection, schedule: Q01DX001 (ip), vehicle: water): 97 (3×) and 101 % of control | survivor count [1]: 1 of 4 | T/C (dose: 400.0 mg/kg/injection, schedule: Q01DX001 (ip), vehicle: water): 95, 97 (2×), 101 % of control

COc1ccccc1OCC(O)COc1ccccc1OC
survivor count (dose: 100.0 mg/kg/injection, schedule: Q04DX003 (ip), vehicle: saline): 6 of 6 | survivor count (dose: 200.0 mg/kg/injection, schedule: Q04DX003 (ip), vehicle: saline): 6 of 6 | survivor count (dose: 400.0 mg/kg/injection, schedule: Q04DX003 (ip), vehicle: saline): 6 of 6

CC/C=C(/C#N)CC
survivor count [3]: 1 of 3

Clc1ccc2c(NCCN3CCCCCC3)nc(C(Cl)(Cl)Cl)nc2c1
survivor count [4]: 0 of 6

COc1cc(/C=C/C=C/C(=O)N2CCCCC2)ccc1O
survivor count [5]: 3 of 3

O/N=C/C=N/O.O/N=C/C=N/O.[Pd]
survivor count (dose: 100.0 mg/kg/injection, schedule: Q04DX002 (ip), vehicle: saline with Tween-80): 0 of 3 | survivor count (dose: 200.0 mg/kg/injection, schedule: Q04DX002 (ip), vehicle: saline with Tween-80): 0 of 3 | survivor count [3]: 0 of 3

CCCCC[As](=O)(O)O
survivor count (dose: 12.5 mg/kg/injection, schedule: Q01DX001 (ip), vehicle: carboxymethylcellulose (CMC)): 0 of 4 | survivor count (dose: 25.0 mg/kg/injection, schedule: Q01DX001 (ip), vehicle: carboxymethylcellulose (CMC)): 0 of 4 | survivor count (dose: 50.0 mg/kg/injection, schedule: Q01DX001 (ip), vehicle: carboxymethylcellulose (CMC)): 0 of 4

NNc1c(F)c(F)c(C(F)(F)F)c(NN)c1F
survivor count (dose: 25.6 mg/kg/injection, schedule: Q04DX002 (ip), vehicle: saline with Tween-80): 1 of 3 | survivor count (dose: 64.0 mg/kg/injection, schedule: Q04DX002 (ip), vehicle: saline with Tween-80): 2 of 3 | survivor count (dose: 160.0 mg/kg/injection, schedule: Q04DX002 (ip), vehicle: saline with Tween-80): 0 of 3 | survivor count [3]: 0 of 3

CC(=O)/C(=C\c1ccc(N(C)C)cc1)C(C)=[N+](C)C(=O)c1c(/[N+](C)=C(C)\C(=C\c2ccc(N(C)C)cc2)C(C)=O)ncn1C
survivor count [6]: 0 of 3

COc1ccccc1-n1c(O)c(N=Nc2ccc(Cl)cc2)c(=O)n(-c2ccccc2OC)c1=S
survivor count (dose: 400.0 mg/kg/injection, schedule: Q01DX001 (ip), vehicle: Klucel (hydroxypropylcellulose) (HPC)): 5 of 6

C=CCONC(=O)Oc1ccccc1
survivor count [4]: 0 of 6

N#CCc1ccc(NN)cc1
survivor count (dose: 300.0 mg/kg/injection, schedule: Q01DX009 (ip), vehicle: other): 0 of 6

O=C(Nc1cccc(C(=O)Nc2ccc(C3=NCCN3)cc2)c1)c1ccc(C2=NCCN2)cc1
T/C (dose: 60.0 mg/kg/injection, schedule: Q01DX Z (ip), vehicle: carboxymethylcellulose (CMC)): 144 % of control | survivor count (dose: 240.0 mg/kg/injection, schedule: Q01DX Z (ip), vehicle: saline): 0 of 6 | survivor count (dose: 480.0 mg/kg/injection, schedule: Q01DX Z (ip), vehicle: saline): 0 of 6

Cc1cc(NCCN(C(C)C)C(C)C)nc(/N=C(\N)Nc2ccc(Cl)c(C(F)(F)F)c2)n1
survivor count (dose: 37.5 mg/kg/injection, schedule: Q01DX009 (ip), vehicle: Klucel (hydroxypropylcellulose) (HPC)): 6 of 6 | survivor count (dose: 40.0 mg/kg/injection, schedule: Q01DX009 (ip), vehicle: Klucel (hydroxypropylcellulose) (HPC)): 2 of 6 | survivor count (dose: 75.0 mg/kg/injection, schedule: Q01DX009 (ip), vehicle: Klucel (hydroxypropylcellulose) (HPC)): 5 of 6 | survivor count (dose: 150.0 mg/kg/injection, schedule: Q01DX009 (ip), vehicle: Klucel (hydroxypropylcellulose) (HPC)): 0 of 6 | survivor count (dose: 300.0 mg/kg/injection, schedule: Q01DX009 (ip), vehicle: Klucel (hydroxypropylcellulose) (HPC)): 0 of 6

CSc1cc(=O)n2c3ccccc3c3ccnc1c32
survivor count [7]: 1 of 6 | survivor count [6]: 0 of 6

Clc1ccc(-c2nnc(-c3cccc4ccccc34)o2)cc1Cl
survivor count [8]: 6 of 6

Cc1ccc(NC(C(=O)O)c2ccccc2)cc1 (stereo not given)
survivor count (dose: 400.0 mg/kg/injection, schedule: Q04DX002 (ip), vehicle: Klucel (hydroxypropylcellulose) (HPC)): 1 of 3

O=C(O)c1ccc(OC(F)(F)C(F)Cl)cc1 (stereo not given)
survivor count [9]: 2 of 6

CC(=O)[C@H]1CC[C@H]2[C@@H]3C[C@H](C)C4=CC(=O)CC[C@]4(C)[C@H]3[C@@H](O)C[C@]12C
survivor count [6]: 3 of 6

CCCc1c(O)ccc(C)c1C
survivor count (dose: 400.0 mg/kg/injection, schedule: Q01DX001 (ip), vehicle: other): 1 of 4

CSc1ccccc1N=Cc1cc(Cl)ccc1O
survivor count (dose: 200.0 mg/kg/injection, schedule: Q01DX001 (ip), vehicle: saline with Tween-80): 6 of 6 | survivor count (dose: 400.0 mg/kg/injection, schedule: Q01DX001 (ip), vehicle: saline with Tween-80): 6 of 6

O=C1c2ccccc2C(=O)N1CCC[P+](c1ccccc1)(c1ccccc1)c1ccccc1
survivor count [5]: 6 of 6 | survivor count (dose: 100.0 mg/kg/injection, schedule: Q01DX009 (ip), vehicle: saline with Tween-80): 3 of 6 | survivor count [8]: 0 of 6 | survivor count (dose: 400.0 mg/kg/injection, schedule: Q01DX009 (ip), vehicle: saline with Tween-80): 0 of 6

CCCCCCC(C)OC(=O)CCCc1ccc(N(CCCl)CCCl)cc1 (stereo not given)
T/C (dose: 100.0 mg/kg/injection, schedule: Q01DX009 (ip), vehicle: saline): 135 % of control | survivor count [10]: 6 of 6

S=c1nc[nH]c2nc[nH]c12.[Ag]
survivor count (dose: 6.0 mg/kg/injection, schedule: Q01DX009 (ip), vehicle: carboxymethylcellulose (CMC)): 3 of 6 | survivor count (dose: 12.0 mg/kg/injection, schedule: Q01DX009 (ip), vehicle: carboxymethylcellulose (CMC)): 3 of 6 | survivor count (dose: 25.0 mg/kg/injection, schedule: Q01DX009 (ip), vehicle: carboxymethylcellulose (CMC)): 3 of 6 | T/C (dose: 100.0 mg/kg/injection, schedule: Q01DX009 (ip), vehicle: carboxymethylcellulose (CMC)): 139 % of control | T/C [11]: 128 and 137 % of control | survivor count [11]: 3 of 6 | T/C [12]: 143 % of control | T/C [2]: 140 % of control | T/C [10]: 141 % of control | T/C (dose: 600.0 mg/kg/injection, schedule: Q01DX009 (ip), vehicle: saline): 143 % of control

COC(=O)C1C=C2c3cccc4[nH]cc(c34)CC2N(C)C1 (stereo not given)
survivor count [12]: 3 of 6 | survivor count [10]: 2 of 6

[O-]/[N+](=N/O)c1ccccc1
survivor count [7]: 1 of 6 | survivor count [6]: 0 of 6

O=C(NC(C(=O)c1ccccc1)c1ccccc1)c1ccccc1 (stereo not given)
survivor count [9]: 6 of 6
